Experimental data from publication PMC7913854.
No constants are given. Whether binding was seen depends on the method and setting. In cells and extracts the contact can be indirect. Binding can be weak; no strength is given. Where a sequence is shown, tags or fusion partners need not be part of it.

Target: T1, human TLR8-HA (hTLR8-HA) (human) (UniProt Q9NR97)
T1 sequence: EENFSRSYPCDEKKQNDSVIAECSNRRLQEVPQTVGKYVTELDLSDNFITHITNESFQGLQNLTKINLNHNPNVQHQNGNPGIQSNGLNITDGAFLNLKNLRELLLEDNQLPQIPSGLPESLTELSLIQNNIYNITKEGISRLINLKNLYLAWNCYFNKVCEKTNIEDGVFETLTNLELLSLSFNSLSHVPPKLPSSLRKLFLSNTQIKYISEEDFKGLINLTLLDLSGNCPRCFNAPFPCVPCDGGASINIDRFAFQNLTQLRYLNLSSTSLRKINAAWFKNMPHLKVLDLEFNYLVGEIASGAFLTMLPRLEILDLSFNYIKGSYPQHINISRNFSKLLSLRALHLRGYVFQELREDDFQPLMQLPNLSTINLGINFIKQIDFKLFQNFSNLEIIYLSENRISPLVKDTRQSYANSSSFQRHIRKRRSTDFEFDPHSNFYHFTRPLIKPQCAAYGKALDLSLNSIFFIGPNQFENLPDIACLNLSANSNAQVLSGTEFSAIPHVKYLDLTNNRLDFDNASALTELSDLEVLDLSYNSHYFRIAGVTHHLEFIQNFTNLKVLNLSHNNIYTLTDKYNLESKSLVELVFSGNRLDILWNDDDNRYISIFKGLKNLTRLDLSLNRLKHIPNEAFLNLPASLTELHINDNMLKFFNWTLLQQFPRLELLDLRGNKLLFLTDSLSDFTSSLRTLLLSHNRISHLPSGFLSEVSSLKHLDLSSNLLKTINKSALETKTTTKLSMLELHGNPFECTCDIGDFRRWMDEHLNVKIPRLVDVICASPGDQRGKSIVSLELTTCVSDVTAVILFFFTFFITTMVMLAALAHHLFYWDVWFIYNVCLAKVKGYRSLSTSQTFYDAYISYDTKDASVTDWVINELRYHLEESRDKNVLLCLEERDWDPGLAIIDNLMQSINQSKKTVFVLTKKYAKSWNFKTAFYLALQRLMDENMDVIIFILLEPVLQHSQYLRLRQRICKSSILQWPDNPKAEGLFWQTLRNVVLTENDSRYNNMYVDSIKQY
Assay: co-IP

Row | binding | Substance
1 | binds | C. atys (sooty mangabey) TLR4, FLAG-tagged (receptor)
2 | binds | Rhesus TLR4, FLAG-tagged (receptor)
